Laboratory results from the supplement of paper PMC10849652.
This is one part of the list.

Protein sequences, listed by entry. Tags and fused reporters are not part of them. Lines headed by an entry give the natural chain unless they say otherwise; changes in a name come on top.
UniProt P42892: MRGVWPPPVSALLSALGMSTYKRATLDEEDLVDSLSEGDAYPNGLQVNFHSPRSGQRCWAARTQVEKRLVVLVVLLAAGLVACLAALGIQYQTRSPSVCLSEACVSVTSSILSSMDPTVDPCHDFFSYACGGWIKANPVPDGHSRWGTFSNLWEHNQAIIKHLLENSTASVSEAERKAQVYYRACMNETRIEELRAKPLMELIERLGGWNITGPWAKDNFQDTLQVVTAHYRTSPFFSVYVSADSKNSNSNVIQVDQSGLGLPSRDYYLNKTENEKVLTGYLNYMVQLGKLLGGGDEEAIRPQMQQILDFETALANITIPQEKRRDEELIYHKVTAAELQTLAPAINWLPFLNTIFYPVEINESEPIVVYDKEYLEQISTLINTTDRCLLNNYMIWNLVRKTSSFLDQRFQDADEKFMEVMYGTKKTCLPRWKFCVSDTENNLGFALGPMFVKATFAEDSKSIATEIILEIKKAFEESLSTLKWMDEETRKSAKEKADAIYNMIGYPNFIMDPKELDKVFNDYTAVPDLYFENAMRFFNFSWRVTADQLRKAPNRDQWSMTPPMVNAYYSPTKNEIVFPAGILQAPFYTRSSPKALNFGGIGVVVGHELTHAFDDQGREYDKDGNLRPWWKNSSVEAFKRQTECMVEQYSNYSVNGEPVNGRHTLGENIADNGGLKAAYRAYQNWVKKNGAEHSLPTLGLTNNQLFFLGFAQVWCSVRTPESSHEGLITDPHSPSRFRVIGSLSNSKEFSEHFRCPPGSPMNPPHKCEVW
UniProt P63167, whole entry, looked up: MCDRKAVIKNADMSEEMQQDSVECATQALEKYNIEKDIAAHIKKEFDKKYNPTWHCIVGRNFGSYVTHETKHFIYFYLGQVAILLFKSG
UniProt Q5VYK3, whole entry, looked up: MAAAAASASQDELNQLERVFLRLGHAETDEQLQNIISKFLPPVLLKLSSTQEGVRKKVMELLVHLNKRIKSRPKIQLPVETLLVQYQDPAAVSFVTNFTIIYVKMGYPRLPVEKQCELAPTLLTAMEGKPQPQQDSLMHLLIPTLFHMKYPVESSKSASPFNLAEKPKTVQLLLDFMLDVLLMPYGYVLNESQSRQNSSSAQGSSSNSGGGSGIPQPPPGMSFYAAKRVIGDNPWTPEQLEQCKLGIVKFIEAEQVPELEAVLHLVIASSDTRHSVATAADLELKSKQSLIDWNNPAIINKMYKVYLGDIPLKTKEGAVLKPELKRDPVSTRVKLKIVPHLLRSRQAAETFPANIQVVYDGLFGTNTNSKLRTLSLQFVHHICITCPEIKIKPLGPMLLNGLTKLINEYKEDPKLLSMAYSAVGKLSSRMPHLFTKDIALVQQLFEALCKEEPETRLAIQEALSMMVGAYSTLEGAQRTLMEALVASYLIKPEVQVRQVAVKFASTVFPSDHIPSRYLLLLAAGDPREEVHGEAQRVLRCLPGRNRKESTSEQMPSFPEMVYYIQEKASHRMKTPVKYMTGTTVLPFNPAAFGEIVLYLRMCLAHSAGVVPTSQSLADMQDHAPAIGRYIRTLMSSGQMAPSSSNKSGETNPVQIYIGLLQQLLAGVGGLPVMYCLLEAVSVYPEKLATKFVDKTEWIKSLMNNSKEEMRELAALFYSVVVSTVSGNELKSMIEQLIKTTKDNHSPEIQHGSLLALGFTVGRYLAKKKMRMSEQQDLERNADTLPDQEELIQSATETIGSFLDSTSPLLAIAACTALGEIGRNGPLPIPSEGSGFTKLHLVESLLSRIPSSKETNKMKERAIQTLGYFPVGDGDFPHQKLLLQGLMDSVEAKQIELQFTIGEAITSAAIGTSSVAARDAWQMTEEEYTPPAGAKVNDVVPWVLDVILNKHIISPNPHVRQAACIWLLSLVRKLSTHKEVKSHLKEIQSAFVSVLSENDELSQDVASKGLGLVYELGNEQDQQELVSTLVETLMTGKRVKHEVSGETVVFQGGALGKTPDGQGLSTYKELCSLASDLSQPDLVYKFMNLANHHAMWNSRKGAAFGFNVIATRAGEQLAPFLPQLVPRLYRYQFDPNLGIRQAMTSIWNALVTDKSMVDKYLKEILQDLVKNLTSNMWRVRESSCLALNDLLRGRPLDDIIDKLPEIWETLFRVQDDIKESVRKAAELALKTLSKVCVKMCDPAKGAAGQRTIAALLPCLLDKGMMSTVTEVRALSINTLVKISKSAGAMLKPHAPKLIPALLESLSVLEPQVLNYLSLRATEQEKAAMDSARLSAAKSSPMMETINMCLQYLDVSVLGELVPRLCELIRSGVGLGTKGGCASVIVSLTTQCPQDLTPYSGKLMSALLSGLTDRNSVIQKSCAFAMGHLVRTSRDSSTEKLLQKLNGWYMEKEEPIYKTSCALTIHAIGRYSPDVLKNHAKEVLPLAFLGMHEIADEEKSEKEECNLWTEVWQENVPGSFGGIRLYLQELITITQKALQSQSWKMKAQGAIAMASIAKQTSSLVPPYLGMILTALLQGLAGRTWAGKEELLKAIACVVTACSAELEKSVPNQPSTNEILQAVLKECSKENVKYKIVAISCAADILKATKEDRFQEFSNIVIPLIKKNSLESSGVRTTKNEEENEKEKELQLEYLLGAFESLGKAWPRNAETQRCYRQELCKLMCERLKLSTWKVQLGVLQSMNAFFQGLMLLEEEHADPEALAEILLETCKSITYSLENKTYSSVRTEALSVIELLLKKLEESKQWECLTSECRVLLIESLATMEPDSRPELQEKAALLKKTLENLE
UniProt Q9P2X0: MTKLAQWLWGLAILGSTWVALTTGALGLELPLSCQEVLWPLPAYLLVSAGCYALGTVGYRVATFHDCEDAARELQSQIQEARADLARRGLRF
UniProt O75937: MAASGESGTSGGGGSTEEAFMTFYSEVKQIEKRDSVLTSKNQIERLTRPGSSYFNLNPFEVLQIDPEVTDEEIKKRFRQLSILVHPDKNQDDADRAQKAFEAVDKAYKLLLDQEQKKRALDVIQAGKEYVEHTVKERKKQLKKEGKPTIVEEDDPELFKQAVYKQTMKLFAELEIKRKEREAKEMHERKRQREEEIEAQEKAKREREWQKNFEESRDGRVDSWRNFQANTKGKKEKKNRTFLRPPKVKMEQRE
UniProt O95147: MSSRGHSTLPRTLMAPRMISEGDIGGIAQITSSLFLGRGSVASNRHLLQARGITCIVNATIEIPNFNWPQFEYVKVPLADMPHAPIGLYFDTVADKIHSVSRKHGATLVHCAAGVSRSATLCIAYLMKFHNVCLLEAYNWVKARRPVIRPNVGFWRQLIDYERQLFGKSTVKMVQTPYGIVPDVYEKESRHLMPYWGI
UniProt O95620: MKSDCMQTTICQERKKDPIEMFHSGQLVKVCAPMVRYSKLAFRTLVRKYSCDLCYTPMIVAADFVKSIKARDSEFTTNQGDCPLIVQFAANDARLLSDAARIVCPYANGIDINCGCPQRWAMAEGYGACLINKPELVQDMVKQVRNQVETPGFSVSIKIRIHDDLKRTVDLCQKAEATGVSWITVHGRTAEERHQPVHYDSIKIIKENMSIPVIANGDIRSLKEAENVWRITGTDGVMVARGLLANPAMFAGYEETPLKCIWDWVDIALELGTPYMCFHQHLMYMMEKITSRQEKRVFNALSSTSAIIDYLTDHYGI
UniProt P51452: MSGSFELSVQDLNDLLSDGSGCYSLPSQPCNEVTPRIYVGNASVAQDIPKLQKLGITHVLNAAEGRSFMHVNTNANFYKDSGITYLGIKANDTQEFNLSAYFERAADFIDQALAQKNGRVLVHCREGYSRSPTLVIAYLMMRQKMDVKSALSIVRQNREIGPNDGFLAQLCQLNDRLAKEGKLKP
UniProt Q6XUX3: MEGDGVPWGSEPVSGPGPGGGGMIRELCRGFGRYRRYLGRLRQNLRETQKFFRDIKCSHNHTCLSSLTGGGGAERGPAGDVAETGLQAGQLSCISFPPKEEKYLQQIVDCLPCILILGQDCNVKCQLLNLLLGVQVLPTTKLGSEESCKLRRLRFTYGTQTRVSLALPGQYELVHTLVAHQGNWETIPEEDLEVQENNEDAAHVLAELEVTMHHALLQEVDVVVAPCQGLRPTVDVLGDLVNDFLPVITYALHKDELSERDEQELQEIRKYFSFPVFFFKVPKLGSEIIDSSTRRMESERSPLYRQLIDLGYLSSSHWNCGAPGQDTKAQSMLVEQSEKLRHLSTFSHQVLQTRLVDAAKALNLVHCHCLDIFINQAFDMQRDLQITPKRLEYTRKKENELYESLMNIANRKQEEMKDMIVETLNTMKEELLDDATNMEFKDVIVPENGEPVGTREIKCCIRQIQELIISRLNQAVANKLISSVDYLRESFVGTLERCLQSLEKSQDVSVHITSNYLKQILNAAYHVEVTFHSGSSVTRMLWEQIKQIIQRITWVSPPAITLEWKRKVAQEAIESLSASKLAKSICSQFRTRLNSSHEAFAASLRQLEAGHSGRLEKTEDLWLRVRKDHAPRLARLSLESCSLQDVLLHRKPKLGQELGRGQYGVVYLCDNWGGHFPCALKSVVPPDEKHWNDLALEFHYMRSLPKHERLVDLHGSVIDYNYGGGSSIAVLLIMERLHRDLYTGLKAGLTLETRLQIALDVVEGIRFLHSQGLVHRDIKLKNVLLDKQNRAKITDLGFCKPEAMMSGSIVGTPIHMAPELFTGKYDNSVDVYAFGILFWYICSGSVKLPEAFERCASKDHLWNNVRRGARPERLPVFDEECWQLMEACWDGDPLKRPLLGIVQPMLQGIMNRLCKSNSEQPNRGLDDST
UniProt Q6V1X1: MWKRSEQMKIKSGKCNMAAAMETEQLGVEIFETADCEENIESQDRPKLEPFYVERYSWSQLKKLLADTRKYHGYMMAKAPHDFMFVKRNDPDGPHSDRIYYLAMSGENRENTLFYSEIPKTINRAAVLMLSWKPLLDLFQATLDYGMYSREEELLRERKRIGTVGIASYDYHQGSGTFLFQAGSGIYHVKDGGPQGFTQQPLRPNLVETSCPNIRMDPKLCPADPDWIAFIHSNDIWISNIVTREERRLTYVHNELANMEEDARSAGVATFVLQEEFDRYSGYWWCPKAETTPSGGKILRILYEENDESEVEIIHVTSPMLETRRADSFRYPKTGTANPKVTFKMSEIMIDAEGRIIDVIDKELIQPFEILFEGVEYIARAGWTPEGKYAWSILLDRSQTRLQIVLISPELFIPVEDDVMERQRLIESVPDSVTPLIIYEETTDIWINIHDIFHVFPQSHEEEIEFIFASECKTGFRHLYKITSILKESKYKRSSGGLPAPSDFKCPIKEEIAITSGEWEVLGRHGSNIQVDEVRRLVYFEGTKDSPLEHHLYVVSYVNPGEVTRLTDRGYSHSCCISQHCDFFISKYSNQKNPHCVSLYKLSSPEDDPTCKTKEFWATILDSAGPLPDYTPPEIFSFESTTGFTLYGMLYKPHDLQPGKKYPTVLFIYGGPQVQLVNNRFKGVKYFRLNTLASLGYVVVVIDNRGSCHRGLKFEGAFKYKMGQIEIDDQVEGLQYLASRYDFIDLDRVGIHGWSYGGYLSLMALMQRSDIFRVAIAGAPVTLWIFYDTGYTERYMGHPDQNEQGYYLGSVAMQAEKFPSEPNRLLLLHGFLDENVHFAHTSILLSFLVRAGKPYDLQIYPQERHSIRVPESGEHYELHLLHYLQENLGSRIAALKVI
UniProt O43237, whole entry, looked up: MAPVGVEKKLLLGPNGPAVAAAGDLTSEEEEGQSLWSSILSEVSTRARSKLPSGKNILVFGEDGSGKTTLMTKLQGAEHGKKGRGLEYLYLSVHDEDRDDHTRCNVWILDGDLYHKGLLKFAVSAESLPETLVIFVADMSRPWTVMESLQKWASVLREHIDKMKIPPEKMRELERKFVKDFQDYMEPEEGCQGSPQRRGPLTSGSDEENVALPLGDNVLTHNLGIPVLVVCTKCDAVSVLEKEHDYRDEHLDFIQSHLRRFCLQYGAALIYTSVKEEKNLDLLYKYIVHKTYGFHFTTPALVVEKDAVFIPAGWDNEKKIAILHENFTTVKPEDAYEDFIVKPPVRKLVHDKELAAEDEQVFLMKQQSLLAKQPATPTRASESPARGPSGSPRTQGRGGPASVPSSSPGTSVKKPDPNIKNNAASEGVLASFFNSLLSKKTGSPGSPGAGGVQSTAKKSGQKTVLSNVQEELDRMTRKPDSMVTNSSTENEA
UniProt Q99704: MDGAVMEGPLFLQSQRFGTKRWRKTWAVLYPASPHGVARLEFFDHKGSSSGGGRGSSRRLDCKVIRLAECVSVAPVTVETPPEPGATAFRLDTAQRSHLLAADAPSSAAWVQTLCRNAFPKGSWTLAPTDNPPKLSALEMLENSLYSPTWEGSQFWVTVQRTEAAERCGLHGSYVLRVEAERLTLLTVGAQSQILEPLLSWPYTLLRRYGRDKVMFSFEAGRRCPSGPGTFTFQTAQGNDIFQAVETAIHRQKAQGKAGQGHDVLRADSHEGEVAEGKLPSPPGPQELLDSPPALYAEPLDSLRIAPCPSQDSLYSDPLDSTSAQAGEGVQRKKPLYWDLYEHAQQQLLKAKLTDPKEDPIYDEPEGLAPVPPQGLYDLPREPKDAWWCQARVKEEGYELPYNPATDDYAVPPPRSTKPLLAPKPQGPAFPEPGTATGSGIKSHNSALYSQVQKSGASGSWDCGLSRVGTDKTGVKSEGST

Tests used:
Assay in all cases: log2 fold change, soluble protein after heating vs DMSO (PISA); higher = thermal stabilisation; K562 cells, 10 uM, 30 min; active = over 0.2 and 3.5 SD of the protein, either way, in both replicates (recomputed)
[1] = compound: C1=CC=C(C=C1)[C@H](COC2=CC3=C(C=C2)NC(=O)N3)NC(=O)C4=CC=CN(C4=O)CC5=CC(=C(C=C5)F)F
Method in brief: (§1)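 K562 cells at 2×10^6 cells/mL were given 10 μM compound for 30 min. Aliquots then went through 3 min of heating across 48°C-58°C, were pooled, and were extracted in PBS with 0.5% NP-40 at 4°C, and the supernatant after 21,000xg for 90 min was quantified by TMTpro 16plex LC-MS/MS with channel sums equalised. Thermal stability relative to control samples, from duplicates, is given as log2 fold change.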

[2] = compound: CC1=C(SC2=C1C(=N[C@H](C3=NN=C(N32)C)CC(=O)N)C4=CC=C(C=C4)Cl)C
Method in brief: as §1

[3] = compound: CC1=C2C(=CC=C1)N=C(N(C2=O)C3=CC=CC=C3C)CN4C=NC5=C(N=CN=C54)N
Method in brief: as §1

[4] = compound: Cc1sc2c(c1C)C(c1ccc(Cl)cc1)=N[C@@H](CC(=O)OC(C)(C)C)c1nnc(C)n1-2
Method in brief: as §1

[5] = compound: c1ccc([C@@H]2C[C@H]2NC2CCNCC2)cc1
Method in brief: as §1

Measured: log2 fold change

EDEM2 (UniProt Q9BV94)
inactive: [1] 0.194 | [2] 0.042 | [3] 0.013 | [4] -0.046 | [5] 0.012

DNAJC9 (UniProt Q8WXX5)
inactive: [1] 0.026 | [2] 0.044 | [3] 0.08 | [4] 0.001 | [5] -0.006

DRG1 (UniProt Q9Y295)
inactive: [1] 0.031 | [2] -0.021 | [3] 0.008 | [4] 0.001 | [5] -0.001

DOP1B (UniProt Q9Y3R5)
inactive: [1] -0.048 | [2] 0.112 | [3] 0.139 | [4] 0 | [5] 0.086

DOLPP1 (UniProt Q86YN1)
inactive: [1] -0.028 | [2] 0.02 | [3] -0.107 | [4] 0.062 | [5] 0.153

DNAJB1 (UniProt P25685)
inactive: [1] -0.019 | [2] 0.015 | [3] 0.066 | [4] -0.003 | [5] -0.026

DUSP23 (UniProt Q9BVJ7)
inactive: [1] -0.042 | [2] 0.179 | [3] 0.144 | [4] -0.179 | [5] 0

DSG2 (UniProt Q14126)
inactive: [1] -0.01 | [2] 0.078 | [3] 0.037 | [4] 0.034 | [5] 0.038

DPP9 isoform 2 (UniProt Q86TI2)
inactive: [1] -0.045 | [2] 0.086 | [3] 0.05 | [4] 0 | [5] -0.065

DUS3L (UniProt Q96G46)
inactive: [1] 0.073 | [2] 0.04 | [3] -0.057 | [4] -0.007 | [5] 0.007

ECE1 (UniProt P42892)
inactive: [1] 0.039 | [2] 0.085 | [3] 0.067 | [4] 0.058 | [5] -0.045

DPH1 (UniProt Q9BZG8)
inactive: [1] -0.018 | [2] 0.001 | [3] -0.037 | [4] 0.023 | [5] 0.035

Reprinted from the entries so far (two entries):
DPP9 isoform 2 (UniProt Q86TI2)
inactive: [1] -0.045 | [2] 0.086 | [3] 0.05 | [4] 0 | [5] -0.065

DUS3L (UniProt Q96G46)
inactive: [1] 0.073 | [2] 0.04 | [3] -0.057 | [4] -0.007 | [5] 0.007

(list continues)

DPH7 (UniProt Q9BTV6)
inactive: [1] 0.024 | [2] 0.028 | [3] 0.009 | [4] -0.063 | [5] -0.025

E2F4 (UniProt Q16254)
inactive: [1] 0.006 | [2] 0.039 | [3] 0.098 | [4] 0.022 | [5] -0.001

ECM1 isoform 4 (UniProt Q16610)
inactive: [1] 0.023 | [2] 0.016 | [3] 0.009 | [4] 0.038 | [5] 0.037

DYNLL1 (UniProt P63167)
inactive: [1] 0.004 | [2] 0.175 | [3] 0.043 | [4] -0.112 | [5] -0.027

DPH3 (UniProt Q96FX2)
inactive: [1] -0.477 | [2] -0.038 | [3] 0.062 | [4] -0.008 | [5] 0.105

DNAJC13 (UniProt O75165)
inactive: [1] -0.001 | [2] 0.01 | [3] 0.034 | [4] 0.033 | [5] -0.005

EBP (UniProt Q15125)
inactive: [1] -0.009 | [2] 0.082 | [3] 0.087 | [4] -0.031 | [5] 0.06

DST (UniProt Q03001)
inactive: [1] 0.089 | [2] 0.156 | [3] 0.135 | [4] -0.04 | [5] -0.047

DNAJC10 (UniProt Q8IXB1)
inactive: [1] 0.084 | [2] -0.057 | [3] -0.066 | [4] 0.015 | [5] -0.048

ECPAS (UniProt Q5VYK3)
inactive: [1] -0.127 | [2] 0.047 | [3] 0.112 | [4] -0.032 | [5] -0.01

DPM3 isoform 2 (UniProt Q9P2X0)
inactive: [1] 0.046 | [2] 0.027 | [3] 0.091 | [4] -0.137 | [5] -0.041

DNAJB6 (UniProt O75190)
inactive: [1] 0.033 | [2] 0.035 | [3] 0.057 | [4] -0.091 | [5] 0.071

DYRK1A isoform 2 (UniProt Q13627)
inactive: [1] -0.062 | [2] 0.059 | [3] 0.085 | [4] 0.026 | [5] 0.011

DYNC1H1 (UniProt Q14204)
inactive: [1] -0.006 | [2] 0.02 | [3] 0.023 | [4] -0.013 | [5] -0.048

DNAJC8 (UniProt O75937)
inactive: [1] -0.017 | [2] 0.043 | [3] 0.053 | [4] -0.01 | [5] 0

DPM1 (UniProt O60762)
inactive: [1] 0.011 | [2] 0.052 | [3] -0.018 | [4] -0.016 | [5] 0.032

DNM1L isoform 6 (UniProt O00429)
inactive: [1] -0.03 | [2] 0.038 | [3] 0.072 | [4] -0.011 | [5] -0.034

DPAGT1 (UniProt Q9H3H5)
inactive: [1] -0.027 | [2] -0.009 | [3] -0.072 | [4] -0.084 | [5] 0.016

DNAJC21 isoform 3 (UniProt Q5F1R6)
inactive: [1] 0.051 | [2] -0.074 | [3] -0.067 | [4] 0.074 | [5] -0.087

DUSP14 (UniProt O95147)
inactive: [1] -0.129 | [2] 0.009 | [3] 0.082 | [4] 0.035 | [5] -0.007

DNASE2 (UniProt O00115)
inactive: [1] 0.018 | [2] 0.003 | [3] 0.021 | [4] 0.009 | [5] 0.051

DUSP12 (UniProt Q9UNI6)
inactive: [1] -0.069 | [2] 0.045 | [3] 0.076 | [4] 0.011 | [5] -0.073

DUS4L (UniProt O95620)
inactive: [1] 0.17 | [2] -0.057 | [3] 0.07 | [4] 0 | [5] 0.031

DUSP3 (UniProt P51452)
inactive: [1] -0.055 | [2] 0.134 | [3] 0.021 | [4] -0.024 | [5] -0.005

DSTYK (UniProt Q6XUX3)
inactive: [1] -0.042 | [2] 0.036 | [3] 0.022 | [4] 0.017 | [5] -0.088

DPP8 (UniProt Q6V1X1)
inactive: [1] -0.112 | [2] 0.029 | [3] 0.145 | [4] -0.033 | [5] 0.005

DOCK7 (UniProt Q96N67)
inactive: [1] -0.04 | [2] 0.11 | [3] -0.01 | [4] -0.048 | [5] 0

DXO (UniProt O77932)
inactive: [1] -0.116 | [2] 0.024 | [3] -0.066 | [4] -0.169 | [5] -0.048

Reprinted at random: 3 entries already listed, in no set order.
DNAJC8 (UniProt O75937)
inactive: [1] -0.017 | [2] 0.043 | [3] 0.053 | [4] -0.01 | [5] 0

DNAJC13 (UniProt O75165)
inactive: [1] -0.001 | [2] 0.01 | [3] 0.034 | [4] 0.033 | [5] -0.005

DNAJB1 (UniProt P25685)
inactive: [1] -0.019 | [2] 0.015 | [3] 0.066 | [4] -0.003 | [5] -0.026

Following part

EDEM3 (UniProt Q9BZQ6)
inactive: [1] 0.053 | [2] -0.073 | [3] -0.008 | [4] 0.026 | [5] -0.009

ECHDC1 (UniProt Q9NTX5)
inactive: [1] 0.017 | [2] 0.018 | [3] 0.035 | [4] 0.003 | [5] 0.049

ECHS1 (UniProt P30084)
inactive: [1] -0.017 | [2] 0.072 | [3] -0.052 | [4] 0.01 | [5] -0.05

ECSIT (UniProt Q9BQ95)
inactive: [1] 0.011 | [2] 0.027 | [3] 0.053 | [4] -0.008 | [5] 0.055

DPP3 (UniProt Q9NY33)
inactive: [1] -0.033 | [2] 0.049 | [3] 0.051 | [4] -0.043 | [5] -0.05

DYNC1LI2 (UniProt O43237)
inactive: [1] -0.04 | [2] -0.071 | [3] 0.035 | [4] -0.028 | [5] 0.013

DPY19L3 (UniProt Q6ZPD9)
inactive: [1] 0.028 | [2] 0.133 | [3] -0.073 | [4] -0.172 | [5] 0.099

DOCK8 (UniProt Q8NF50)
inactive: [1] 0.096 | [2] -0.223 | [3] -0.01 | [4] 0.152 | [5] -0.087

DNM2 (UniProt P50570)
inactive: [1] -0.023 | [2] 0.044 | [3] 0.078 | [4] -0.027 | [5] -0.036

DNAJB1 (UniProt M0R128)
inactive: [2] 0.006 | [3] 0.106 | [4] 0.078 | [5] 0.061
active: [1] -0.843

DOK1 (UniProt Q99704)
inactive: [1] -0.063 | [2] 0.052 | [3] 0.049 | [4] -0.05 | [5] -0.054

DNAJC1 (UniProt Q96KC8)
inactive: [1] -0.024 | [2] 0.054 | [3] 0.08 | [4] -0.015 | [5] 0.052

DUT (UniProt P33316)
inactive: [1] -0.048 | [2] 0.024 | [3] 0.06 | [4] -0.007 | [5] -0.007
